No constants are given. Whether binding was seen depends on the method and setting.
Target: M. jannaschii MtrA (M. jannaschii) (UniProt Q58261)
Test: SEC-MALS

B1: M. jannaschii MtrA (protein, UniProt Q58261 1-170)
chain: MANKREPAPGWPIVSGEYVVGNPESCVGVVTLGSHGLEQACIDAGAAIAGPCHTENLGIEKVVANYISNPNIRFMILCGSEVQGHITGQCFKALWENGIGDDGGIIGAKGAIPFLENVNKEAVERFRRQIVEVVDLIDCEDIGKITQAIKECLSKDPGAIDEDPFIIELE
binding: no binding
